Common to all, as to assay: BLI
The target in one data set is BRCA1 DBD1 R496H (human) (UniProt P38398). The settings on record: between ssDNA and G4, value not in material; residues 330-554.
For a further data set, the target named is BRCA1 DBD1 T374I (human) (UniProt P38398). As to conditions: order of magnitude below WT, value not in material; residues 330-554.
The target of data set [1] is BRCA1 DBD2 M1008I (human) (UniProt P38398). The settings on record: 2-3 orders below WT, value not in material; residues 894-1057.
The target in data set [2] is BRCA1 DBD2 S1027N (human) (UniProt P38398). As to conditions: three orders below WT, value not in material; residues 894-1057.
In another data set the target is BRCA1 DBD1 N417S (human) (UniProt P38398). As to conditions: order of magnitude below WT, value not in material; residues 330-554.
Data set [3] concerns the target BRCA1 DBD2 E1038G (human) (UniProt P38398). The settings on record: three orders below WT, value not in material; residues 894-1057.
In a further data set the target is BRCA1 DBD2 N909I (human) (UniProt P38398). The settings on record: 2-3 orders below WT, value not in material; residues 894-1057.
Data set [4] deals with BRCA1 DBD2 R1028H (human) (UniProt P38398). As to conditions: 2-3 orders below WT, value not in material; residues 894-1057.

For some assays here: The comparison behind a weaker result is the experiment's own reference, which may not be listed here. For some assays here: The exact form of at least one protein or probe is not confirmed. For some assays here: At least one verdict was read from the data and is not stated in words by the source.

“CCATGGCTCCTGAGCTAGCTGCAGTAGCCTAAAGGATGAAACTAGGATCTTATGCTCCAT (double strand) [Biods60R-Cy3 (blunt dsDNA)]”: the binding result with BRCA1 DBD1 R496H (human) is reported as “binds”; with BRCA1 DBD1 T374I (human), “binds more weakly”; in data set [1], “binds more weakly”; in data set [2], “binds more weakly”.

In the case of “CCATGGCTCCTGAGCTAGCTGCAGTAGCCTAAAGGATGAAACTAGGATCTTATGCTCCAT [Bioss60R (ssDNA)]”, the binding result with BRCA1 DBD1 N417S (human) was “binds more weakly”.

With “TTAGGGTTAGGGTTAGGGTTAGGG [BioG4Telo (G4 DNA)]”, the binding result (in data set [3]; with BRCA1 DBD2 N909I (human); in data set [4]) was “binds more weakly” throughout.

The values above are taken from article doi:10.1101/2025.07.10.664210.
